# At least one compound was matched to its structure with a doubt left.
# System: patients with metastatic castration-resistant prostate cancer (mCRPC)
# Settings: Patient 03-013, 60 days on abiraterone/prednisone alone
smiles,measurement,value
"C[C@]12CC[C@H](O)CC1=CC[C@@H]1[C@@H]2CC[C@]2(C)C(c3cccnc3)=CC[C@@H]12 [abiraterone, reference compound]",PSA levels prior to onvansertib treatment,doubled
